Results are given in words; binding and its absence hold for the method and conditions named. In cells and extracts the contact can be indirect. Some binding calls cover weakened binding; strength is not graded here. Where a sequence is shown, tags or fusion partners need not be part of it.
Legend:
[1] = molecular target: T1, Rab5-YFP (Drosophila) (UniProt Q9V3I2); assay: co-IP; lysates of transiently transfected Drosophila S2 cells in RIPA buffer with protease inhibitors; Dynabeads with rabbit anti-GFP or mouse anti-Myc; western blot with anti-Myc and anti-GFP
T1 sequence: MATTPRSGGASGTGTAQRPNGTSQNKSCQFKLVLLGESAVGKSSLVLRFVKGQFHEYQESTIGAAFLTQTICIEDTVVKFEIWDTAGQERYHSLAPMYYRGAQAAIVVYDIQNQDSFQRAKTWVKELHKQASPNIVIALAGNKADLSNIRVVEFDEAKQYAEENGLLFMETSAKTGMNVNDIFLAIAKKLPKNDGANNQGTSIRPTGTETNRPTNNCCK

Sequences of proteins named here, by UniProt entry; tags and fusion partners are left off.
UniProt Q9VDJ9: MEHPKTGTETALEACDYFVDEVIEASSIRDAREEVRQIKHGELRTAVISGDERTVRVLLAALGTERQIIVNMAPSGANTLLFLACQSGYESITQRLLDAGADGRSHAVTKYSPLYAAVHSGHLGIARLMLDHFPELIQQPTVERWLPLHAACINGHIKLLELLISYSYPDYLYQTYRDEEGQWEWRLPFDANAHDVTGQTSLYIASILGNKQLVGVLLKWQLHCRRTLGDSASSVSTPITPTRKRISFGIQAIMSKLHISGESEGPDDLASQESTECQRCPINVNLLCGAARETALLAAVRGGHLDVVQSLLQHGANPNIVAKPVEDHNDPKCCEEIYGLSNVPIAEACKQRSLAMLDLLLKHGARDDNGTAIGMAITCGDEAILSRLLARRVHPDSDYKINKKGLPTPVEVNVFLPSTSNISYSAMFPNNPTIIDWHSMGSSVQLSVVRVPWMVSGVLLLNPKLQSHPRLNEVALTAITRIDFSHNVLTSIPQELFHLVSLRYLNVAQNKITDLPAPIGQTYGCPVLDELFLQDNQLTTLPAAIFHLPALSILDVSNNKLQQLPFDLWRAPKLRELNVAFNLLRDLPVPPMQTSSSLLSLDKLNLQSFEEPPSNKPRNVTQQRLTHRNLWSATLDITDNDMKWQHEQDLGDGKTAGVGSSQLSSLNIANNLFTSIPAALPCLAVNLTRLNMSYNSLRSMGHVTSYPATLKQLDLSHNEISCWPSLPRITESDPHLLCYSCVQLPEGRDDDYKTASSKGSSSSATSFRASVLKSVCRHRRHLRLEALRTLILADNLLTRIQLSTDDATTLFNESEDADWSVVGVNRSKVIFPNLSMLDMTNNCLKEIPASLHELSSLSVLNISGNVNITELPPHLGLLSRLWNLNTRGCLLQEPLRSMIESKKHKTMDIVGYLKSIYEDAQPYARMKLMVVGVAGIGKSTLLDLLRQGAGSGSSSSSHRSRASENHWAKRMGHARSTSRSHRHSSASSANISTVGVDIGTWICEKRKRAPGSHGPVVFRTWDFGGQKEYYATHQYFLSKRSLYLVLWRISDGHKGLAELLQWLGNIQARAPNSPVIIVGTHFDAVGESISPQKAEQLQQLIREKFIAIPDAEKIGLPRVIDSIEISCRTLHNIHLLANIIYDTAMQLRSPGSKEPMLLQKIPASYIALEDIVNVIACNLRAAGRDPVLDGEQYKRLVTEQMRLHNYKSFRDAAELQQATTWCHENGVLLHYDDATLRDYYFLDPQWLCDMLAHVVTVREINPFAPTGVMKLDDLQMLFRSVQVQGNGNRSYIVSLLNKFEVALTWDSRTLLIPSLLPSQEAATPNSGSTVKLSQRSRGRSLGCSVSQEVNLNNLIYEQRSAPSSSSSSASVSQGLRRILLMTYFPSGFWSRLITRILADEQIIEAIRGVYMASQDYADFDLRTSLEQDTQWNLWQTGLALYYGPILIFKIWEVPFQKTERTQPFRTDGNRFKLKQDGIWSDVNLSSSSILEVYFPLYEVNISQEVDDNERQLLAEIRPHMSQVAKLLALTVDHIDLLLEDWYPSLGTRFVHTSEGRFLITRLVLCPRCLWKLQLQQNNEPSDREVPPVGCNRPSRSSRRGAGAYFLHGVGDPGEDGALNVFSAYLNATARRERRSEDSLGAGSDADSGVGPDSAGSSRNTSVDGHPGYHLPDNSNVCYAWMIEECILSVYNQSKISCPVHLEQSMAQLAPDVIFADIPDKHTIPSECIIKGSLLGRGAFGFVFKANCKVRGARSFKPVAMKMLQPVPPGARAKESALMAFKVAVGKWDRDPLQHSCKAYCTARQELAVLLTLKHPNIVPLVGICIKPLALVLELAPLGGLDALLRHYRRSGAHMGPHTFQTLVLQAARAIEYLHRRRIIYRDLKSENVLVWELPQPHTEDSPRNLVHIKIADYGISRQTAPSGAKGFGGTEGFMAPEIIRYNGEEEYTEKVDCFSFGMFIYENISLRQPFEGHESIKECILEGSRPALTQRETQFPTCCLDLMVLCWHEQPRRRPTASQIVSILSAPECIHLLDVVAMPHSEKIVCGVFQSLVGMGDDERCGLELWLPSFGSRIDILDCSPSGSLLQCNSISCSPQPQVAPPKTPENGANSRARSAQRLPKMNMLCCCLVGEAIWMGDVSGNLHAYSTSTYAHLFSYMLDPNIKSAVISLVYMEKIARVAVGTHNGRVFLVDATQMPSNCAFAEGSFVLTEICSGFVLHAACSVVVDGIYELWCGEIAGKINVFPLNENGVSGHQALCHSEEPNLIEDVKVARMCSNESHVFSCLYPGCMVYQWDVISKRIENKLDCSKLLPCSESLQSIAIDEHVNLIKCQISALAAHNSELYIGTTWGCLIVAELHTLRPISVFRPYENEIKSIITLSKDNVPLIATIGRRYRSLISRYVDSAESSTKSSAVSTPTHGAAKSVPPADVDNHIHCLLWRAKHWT

[2] = molecular target: T2, Rab11-YFP (Drosophila) (UniProt O18335); assay: as above
T2 sequence: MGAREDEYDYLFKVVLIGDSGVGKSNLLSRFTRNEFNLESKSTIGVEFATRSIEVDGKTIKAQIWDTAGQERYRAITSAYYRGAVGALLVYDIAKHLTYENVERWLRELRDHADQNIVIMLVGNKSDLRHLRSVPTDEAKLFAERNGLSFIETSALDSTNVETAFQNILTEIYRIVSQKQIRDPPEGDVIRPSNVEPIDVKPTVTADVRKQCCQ

Substance: Drosophila Lrrk, 9myc-tagged (pMT-lrrk-9myc) (from UniProt Q9VDJ9 1-2445)
- binding [1]: binds
- binding [2]: no binding
